B1: IL-20R1 triple mutant M3 (receptor, UniProt Q9UHF4 29-245, looked up)
chain: AVPCVSGGLPKPANITFLSINMKNVLQWTPPEGLQGVKVTYTVQYFIYGQKKWLNKSECRNINRTYCDLSAETSDYEHQYYAKVKAIWGTKCSKWAESGRFYPFLETQIGPPEVALTTDEKSISVVLTAPEKWKRNPEDLPVSMQQIYSNLKYNVSVLNTKANRTASQCVTNHTLVLTALEPNTLYCVHVESFVPGPPRRAQPSEKQCARTLKDQSS
B2: IL-20/IL-20R2 binary complex (other)
chain 1: MLKTLNLGSCVIATNLQEIRNGFSEIRGSVQAKDGNIDIRILRRTESLQDTKPANRCCLLRHLLRLYLDRVFKNYQTPDHYTLRKISSLANSFLTIKKDLRLCHAHMTCHCGEEAMKKYSQILSHFEKLEPQAAVVKALGELDILLQWMEETE
chain 2: DEVAILPAPQQLSVLSTNMKHLLMWSPVIAPGETVYYSVEYQGEYESLYTSHIWIPSSWCSLTEGPECDVTDDITATVPYNLRVRATLGSQTSAWSILKHPFNRQSTILTRPGMEITKDGFHLVIELEDLGPQFEFLVAYWRREPGAEEHVKMVRSGGIPVHLETMEPGAAYCVKAQTFVKAIGRYSAFSQTECVEVQGEA
notes: also called 20 + 20R2; IL-20+soluble IL-20R2
B3: IL-19/IL-20R2 binary complex (other)
chain 1: LRRCLISTDMHHIEESFQEIKRAIQAKDTFPNVTILSTLETLQIIKPLDVCCVTKNLLAFYVDRVFKDHQEPNPKILRKISSIANSFLYMQKTLRQCQEQRQCHCRQEATNATRVIHDNYDQLEVHAAAIKSLGELDVFLAWINKNHEVMFSA
chain 2: B2 chain 2
notes: IL-19 with IL-20R2 that carries no FC: amine coupled on the chip, or soluble; also called IL-19+soluble IL-20R2
B4: IL-20 (ligand)
chain: B2 chain 1
notes: The crystal model holds residues 24-176; also called Interleukin-20; IL-20b
B5: IL-19 (ligand)
chain: B3 chain 1
B6: soluble IL-20R1 (receptor)
chain: VPCVSGGLPKPANITFLSINMKNVLQWTPPEGLQGVKVTYTVQYFIYGQKKWLNKSECRNINRTYCDLSAETSDYEHQYYAKVKAIWGTKCSKWAESGRFYPFLETQIGPPEVALTTDEKSISVVLTAPEKWKRNPEDLPVSMQQIYSNLKYNVSVLNTKSNRTWSQCVTNHTLVLTWLEPNTLYCVHVESFVPGPPRRAQPSEKQCARTLKDQSS

The chains behind the UniProt entries cited, without tags or fusion partners. Where a name states a change or a piece, a line headed by the entry shows the natural chain unless it says otherwise.
UniProt Q6UXL0: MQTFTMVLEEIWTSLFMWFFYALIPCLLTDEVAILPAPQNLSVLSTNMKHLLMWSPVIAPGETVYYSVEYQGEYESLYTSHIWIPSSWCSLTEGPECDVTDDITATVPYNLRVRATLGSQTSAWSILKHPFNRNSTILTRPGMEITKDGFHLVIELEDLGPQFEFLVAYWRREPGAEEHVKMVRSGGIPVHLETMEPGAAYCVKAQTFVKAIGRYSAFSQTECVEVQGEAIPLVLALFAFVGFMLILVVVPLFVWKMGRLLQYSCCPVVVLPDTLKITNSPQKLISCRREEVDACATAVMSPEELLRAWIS

The target of assay [1] is B2. Nature of the assay: SPR, IL-20 (250 nM) co-injected with the IL-20R1 site 3 mutant M3 (425 nM) over an IL-20R2 coupled Biacore chip.
The next assay has as its target T1, IL-20R1-FC.
T1 construct: also called IL-20R-fc
T1 chain: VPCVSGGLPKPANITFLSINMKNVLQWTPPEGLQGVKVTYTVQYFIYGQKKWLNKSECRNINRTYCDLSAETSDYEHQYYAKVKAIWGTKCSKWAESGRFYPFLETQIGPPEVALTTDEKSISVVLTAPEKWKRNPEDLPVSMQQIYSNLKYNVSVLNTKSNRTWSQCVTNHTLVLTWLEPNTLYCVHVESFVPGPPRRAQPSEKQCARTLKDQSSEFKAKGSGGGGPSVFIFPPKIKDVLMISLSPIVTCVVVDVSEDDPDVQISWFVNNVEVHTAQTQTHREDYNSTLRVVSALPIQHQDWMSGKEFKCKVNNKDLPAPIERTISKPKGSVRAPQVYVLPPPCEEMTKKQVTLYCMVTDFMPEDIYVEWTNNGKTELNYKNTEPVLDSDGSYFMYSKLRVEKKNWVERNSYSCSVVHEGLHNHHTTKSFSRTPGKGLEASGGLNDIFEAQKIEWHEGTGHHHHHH
Nature of the assay: SPR, IL-20 (1000 to 31.25 nM, 2-fold dilutions) co-injected with soluble IL-20R2 (fixed at 500 nM) over an IL-20R1-FC coupled surface.

The target in assay [2] is T2, IL-22R1 (sIL-22R1DDQ) (Homo sapiens (Human)) (UniProt Q8N6P7).
T2 sequence: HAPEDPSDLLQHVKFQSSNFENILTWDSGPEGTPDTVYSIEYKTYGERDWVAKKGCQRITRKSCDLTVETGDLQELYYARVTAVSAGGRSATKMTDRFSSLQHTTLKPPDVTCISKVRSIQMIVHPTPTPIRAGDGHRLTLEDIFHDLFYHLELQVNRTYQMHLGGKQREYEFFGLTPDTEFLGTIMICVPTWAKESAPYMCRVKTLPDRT
Nature of the assay: SPR, IL-20 (1000 to 31.25 nM, 2-fold dilutions) co-injected with soluble IL-20R2 (fixed at 500 nM) over an IL-22R1 coupled surface.

In assay [3] the target is T2, IL-22R1 (sIL-22R1DDQ) (Homo sapiens (Human)). In words: SPR, IL-19 (1000 to 31.25 nM, 2-fold dilutions) co-injected with soluble IL-20R2 (fixed at 500 nM) over an IL-22R1 coupled surface.
Assay [4] addresses T3, soluble IL-20R2 (Homo sapiens (Human)) (UniProt Q6UXL0).
T3 sequence: B2 chain 2
Nature of the assay: glutaraldehyde cross-linking of IL-20/IL-20R1/IL-20R2 (5 µM, 30 min), 15% SDS-PAGE; bottom gel 'IL-20/IL-20R1/IL-20R2 x-linking' (FIG. 11C of the legend).

Assay [5] addresses T3, soluble IL-20R2 (Homo sapiens (Human)). Nature of the assay: glutaraldehyde cross-linking of IL-19/IL-20R1/IL-20R2 (5 µM, 30 min), 15% SDS-PAGE; middle gel 'IL-19/IL-20R1/IL-20R2 x-linking' (FIG. 11B of the legend).
The target of a further assay is IL-20R2-FC. Nature of the assay: SPR, IL-19 over IL-20R2 (FIG. 12C).
Assay [6] concerns the target T3, soluble IL-20R2 (Homo sapiens (Human)). Nature of the assay: glutaraldehyde cross-linking of IL-19/IL-20R2 (5 µM, 30 min), 15% SDS-PAGE; top gel 'IL-19/IL-20R2 x-linking' (FIG. 11A of the legend).
For assay [7] the target is unchanged. In words: glutaraldehyde cross-linking of soluble complexes at 5 µM, SDS-PAGE.
For assay [8], the target named is B2. Nature of the assay: SPR, IL-20 (250 nM) co-injected with soluble IL-20R1 (425 nM) over an IL-20R2 coupled Biacore chip; ternary complex formation.
In assay [9] the target is B2. Nature of the assay: SPR, IL-20 (250 nM) + IL-20R1 (425 nM) over an IL-20R2 coupled chip.
The target in assay [10] is T4, IL-19/IL-20R2 binary complex (human) (UniProt Q9UHD0).
T4 sequence 1: B3 chain 1
T4 sequence 2: B2 chain 2
Nature of the assay: glutaraldehyde cross-linking of IL-19/IL-20R1/IL-20R2 (5 µM, 30 min), 15% SDS-PAGE; middle gel (FIG. 11B of the legend).

The target in assay [11] is T4, IL-19/IL-20R2 binary complex (human). In words: SPR, IL-19 (250 nM) + IL-20R1 (425 nM) over an IL-20R2 coupled chip.
Assay [12] shares this target. In words: SPR, IL-19 (250 nM) co-injected with soluble IL-20R1 (425 nM) over an IL-20R2 coupled Biacore chip; ternary complex formation.
Assay [13] deals with B2. In words: glutaraldehyde cross-linking of soluble complexes at 5 µM, SDS-PAGE.
The target in assay [14] is T4, IL-19/IL-20R2 binary complex (human). Described as above.
The target of assay [15] is B2. Nature of the assay: glutaraldehyde cross-linking of IL-20/IL-20R1/IL-20R2 (5 µM, 30 min), 15% SDS-PAGE; bottom gel (FIG. 11C of the legend).

No constants are given. Whether binding was seen depends on the method and setting. Some binding calls cover weakened binding; strength is not graded here.

Turning to B1, in assay [1], the binding entry was “binds”.

For the molecule B2, the binding result (in the assay with IL-20R1-FC; in assay [2]) was “binds” throughout.

Take B3: the binding entry in [3] is given as “no binding (tested: 1000 nM IL-19 with 500 nM IL-20R2)”.

As for B4, in assay [4], the binding entry is listed as “binds”.

On to B5, for which the binding result (in [5]; with IL-20R2-FC; in assay [6]; in assay [7]) was “binds” in each case.

In the case of B6, the binding result in [8], in assay [9], in assay [10], in [11], in assay [12] and in assay [13] was “binds” throughout. Also, the binding entry in assay [14] and in assay [15] was “binds” throughout.
